Results: the supplement of paper PMC11732987, “Enantioselective OTUD7B fragment discovery through chemoproteomics screening and high-throughput optimisation” (Communications Chemistry, 2025)
The other results are listed elsewhere or left out. The data scatter; read single values as rough.

Chains of the proteins cited; added tags and fusions are not shown. Lines headed by an entry give the natural chain unless they say otherwise; changes in a name come on top. Residues count along the entry.
UniProt Q8IY18: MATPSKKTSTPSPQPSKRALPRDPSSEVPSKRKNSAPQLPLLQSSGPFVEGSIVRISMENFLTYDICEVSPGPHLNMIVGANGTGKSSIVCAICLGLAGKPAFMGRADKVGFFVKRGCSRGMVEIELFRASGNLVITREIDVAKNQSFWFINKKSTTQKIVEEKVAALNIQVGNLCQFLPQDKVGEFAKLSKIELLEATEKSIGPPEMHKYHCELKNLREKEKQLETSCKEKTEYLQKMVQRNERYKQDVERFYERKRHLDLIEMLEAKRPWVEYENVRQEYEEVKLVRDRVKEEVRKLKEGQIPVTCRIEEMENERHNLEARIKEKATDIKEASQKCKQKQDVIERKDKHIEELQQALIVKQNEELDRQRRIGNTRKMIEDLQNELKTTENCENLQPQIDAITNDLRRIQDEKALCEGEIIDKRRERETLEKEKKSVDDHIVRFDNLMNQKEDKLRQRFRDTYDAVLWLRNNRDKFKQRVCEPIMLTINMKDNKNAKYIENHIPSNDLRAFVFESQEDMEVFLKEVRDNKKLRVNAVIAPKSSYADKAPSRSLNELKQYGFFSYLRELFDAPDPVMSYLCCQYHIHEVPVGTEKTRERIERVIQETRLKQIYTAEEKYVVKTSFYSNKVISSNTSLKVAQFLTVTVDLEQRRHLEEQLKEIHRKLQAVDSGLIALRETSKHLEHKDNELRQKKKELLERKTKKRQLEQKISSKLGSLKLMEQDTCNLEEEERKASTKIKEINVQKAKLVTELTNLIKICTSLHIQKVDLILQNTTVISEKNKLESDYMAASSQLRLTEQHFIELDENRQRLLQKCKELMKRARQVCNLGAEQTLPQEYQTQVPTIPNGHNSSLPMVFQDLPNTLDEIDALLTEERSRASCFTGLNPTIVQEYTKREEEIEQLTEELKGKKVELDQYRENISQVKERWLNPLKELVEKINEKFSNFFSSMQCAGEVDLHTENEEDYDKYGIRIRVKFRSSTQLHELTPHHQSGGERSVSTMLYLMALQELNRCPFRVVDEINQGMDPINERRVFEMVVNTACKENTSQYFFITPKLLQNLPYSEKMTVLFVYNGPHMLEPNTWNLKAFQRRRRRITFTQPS
UniProt Q92966: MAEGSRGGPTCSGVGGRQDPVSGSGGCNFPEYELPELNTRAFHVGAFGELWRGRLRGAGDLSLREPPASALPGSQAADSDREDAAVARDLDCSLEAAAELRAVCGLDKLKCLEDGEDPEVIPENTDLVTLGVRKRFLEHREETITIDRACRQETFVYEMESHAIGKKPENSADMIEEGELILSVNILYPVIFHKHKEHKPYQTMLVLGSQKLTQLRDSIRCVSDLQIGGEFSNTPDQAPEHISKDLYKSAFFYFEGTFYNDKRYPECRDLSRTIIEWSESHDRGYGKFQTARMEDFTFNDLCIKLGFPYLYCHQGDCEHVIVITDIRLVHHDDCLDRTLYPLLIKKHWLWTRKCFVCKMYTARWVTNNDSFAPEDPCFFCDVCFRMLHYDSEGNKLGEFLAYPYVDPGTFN
UniProt Q15477: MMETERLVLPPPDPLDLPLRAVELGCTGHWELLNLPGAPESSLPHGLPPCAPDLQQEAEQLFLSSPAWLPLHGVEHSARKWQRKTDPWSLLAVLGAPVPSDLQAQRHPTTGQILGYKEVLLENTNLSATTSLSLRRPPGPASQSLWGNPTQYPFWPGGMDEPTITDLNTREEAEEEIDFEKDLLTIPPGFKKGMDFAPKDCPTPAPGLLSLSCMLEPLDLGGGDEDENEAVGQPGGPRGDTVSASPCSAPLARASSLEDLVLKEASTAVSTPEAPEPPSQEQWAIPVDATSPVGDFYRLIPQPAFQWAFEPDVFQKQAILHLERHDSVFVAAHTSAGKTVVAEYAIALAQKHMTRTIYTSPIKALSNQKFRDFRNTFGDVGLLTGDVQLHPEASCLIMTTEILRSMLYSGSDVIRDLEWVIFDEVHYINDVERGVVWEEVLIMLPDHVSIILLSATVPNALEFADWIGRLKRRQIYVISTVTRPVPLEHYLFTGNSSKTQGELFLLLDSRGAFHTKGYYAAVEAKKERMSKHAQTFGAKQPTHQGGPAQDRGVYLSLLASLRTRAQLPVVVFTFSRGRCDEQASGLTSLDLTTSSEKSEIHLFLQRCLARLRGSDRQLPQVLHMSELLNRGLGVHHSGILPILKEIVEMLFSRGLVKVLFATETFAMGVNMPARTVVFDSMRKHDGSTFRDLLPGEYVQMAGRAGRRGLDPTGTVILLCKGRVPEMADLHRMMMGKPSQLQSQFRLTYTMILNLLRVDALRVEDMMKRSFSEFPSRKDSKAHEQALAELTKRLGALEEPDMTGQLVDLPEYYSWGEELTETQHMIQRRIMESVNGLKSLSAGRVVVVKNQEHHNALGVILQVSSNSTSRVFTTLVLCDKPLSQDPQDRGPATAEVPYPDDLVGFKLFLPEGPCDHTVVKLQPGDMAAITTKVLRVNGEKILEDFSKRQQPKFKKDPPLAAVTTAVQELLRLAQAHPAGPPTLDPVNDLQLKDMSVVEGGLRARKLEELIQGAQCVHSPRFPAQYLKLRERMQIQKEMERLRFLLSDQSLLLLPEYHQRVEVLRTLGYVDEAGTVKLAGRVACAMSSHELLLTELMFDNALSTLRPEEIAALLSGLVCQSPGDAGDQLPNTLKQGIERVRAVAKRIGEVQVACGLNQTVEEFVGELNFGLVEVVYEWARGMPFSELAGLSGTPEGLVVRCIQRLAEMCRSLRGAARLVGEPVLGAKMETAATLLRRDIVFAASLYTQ
UniProt Q96Q15: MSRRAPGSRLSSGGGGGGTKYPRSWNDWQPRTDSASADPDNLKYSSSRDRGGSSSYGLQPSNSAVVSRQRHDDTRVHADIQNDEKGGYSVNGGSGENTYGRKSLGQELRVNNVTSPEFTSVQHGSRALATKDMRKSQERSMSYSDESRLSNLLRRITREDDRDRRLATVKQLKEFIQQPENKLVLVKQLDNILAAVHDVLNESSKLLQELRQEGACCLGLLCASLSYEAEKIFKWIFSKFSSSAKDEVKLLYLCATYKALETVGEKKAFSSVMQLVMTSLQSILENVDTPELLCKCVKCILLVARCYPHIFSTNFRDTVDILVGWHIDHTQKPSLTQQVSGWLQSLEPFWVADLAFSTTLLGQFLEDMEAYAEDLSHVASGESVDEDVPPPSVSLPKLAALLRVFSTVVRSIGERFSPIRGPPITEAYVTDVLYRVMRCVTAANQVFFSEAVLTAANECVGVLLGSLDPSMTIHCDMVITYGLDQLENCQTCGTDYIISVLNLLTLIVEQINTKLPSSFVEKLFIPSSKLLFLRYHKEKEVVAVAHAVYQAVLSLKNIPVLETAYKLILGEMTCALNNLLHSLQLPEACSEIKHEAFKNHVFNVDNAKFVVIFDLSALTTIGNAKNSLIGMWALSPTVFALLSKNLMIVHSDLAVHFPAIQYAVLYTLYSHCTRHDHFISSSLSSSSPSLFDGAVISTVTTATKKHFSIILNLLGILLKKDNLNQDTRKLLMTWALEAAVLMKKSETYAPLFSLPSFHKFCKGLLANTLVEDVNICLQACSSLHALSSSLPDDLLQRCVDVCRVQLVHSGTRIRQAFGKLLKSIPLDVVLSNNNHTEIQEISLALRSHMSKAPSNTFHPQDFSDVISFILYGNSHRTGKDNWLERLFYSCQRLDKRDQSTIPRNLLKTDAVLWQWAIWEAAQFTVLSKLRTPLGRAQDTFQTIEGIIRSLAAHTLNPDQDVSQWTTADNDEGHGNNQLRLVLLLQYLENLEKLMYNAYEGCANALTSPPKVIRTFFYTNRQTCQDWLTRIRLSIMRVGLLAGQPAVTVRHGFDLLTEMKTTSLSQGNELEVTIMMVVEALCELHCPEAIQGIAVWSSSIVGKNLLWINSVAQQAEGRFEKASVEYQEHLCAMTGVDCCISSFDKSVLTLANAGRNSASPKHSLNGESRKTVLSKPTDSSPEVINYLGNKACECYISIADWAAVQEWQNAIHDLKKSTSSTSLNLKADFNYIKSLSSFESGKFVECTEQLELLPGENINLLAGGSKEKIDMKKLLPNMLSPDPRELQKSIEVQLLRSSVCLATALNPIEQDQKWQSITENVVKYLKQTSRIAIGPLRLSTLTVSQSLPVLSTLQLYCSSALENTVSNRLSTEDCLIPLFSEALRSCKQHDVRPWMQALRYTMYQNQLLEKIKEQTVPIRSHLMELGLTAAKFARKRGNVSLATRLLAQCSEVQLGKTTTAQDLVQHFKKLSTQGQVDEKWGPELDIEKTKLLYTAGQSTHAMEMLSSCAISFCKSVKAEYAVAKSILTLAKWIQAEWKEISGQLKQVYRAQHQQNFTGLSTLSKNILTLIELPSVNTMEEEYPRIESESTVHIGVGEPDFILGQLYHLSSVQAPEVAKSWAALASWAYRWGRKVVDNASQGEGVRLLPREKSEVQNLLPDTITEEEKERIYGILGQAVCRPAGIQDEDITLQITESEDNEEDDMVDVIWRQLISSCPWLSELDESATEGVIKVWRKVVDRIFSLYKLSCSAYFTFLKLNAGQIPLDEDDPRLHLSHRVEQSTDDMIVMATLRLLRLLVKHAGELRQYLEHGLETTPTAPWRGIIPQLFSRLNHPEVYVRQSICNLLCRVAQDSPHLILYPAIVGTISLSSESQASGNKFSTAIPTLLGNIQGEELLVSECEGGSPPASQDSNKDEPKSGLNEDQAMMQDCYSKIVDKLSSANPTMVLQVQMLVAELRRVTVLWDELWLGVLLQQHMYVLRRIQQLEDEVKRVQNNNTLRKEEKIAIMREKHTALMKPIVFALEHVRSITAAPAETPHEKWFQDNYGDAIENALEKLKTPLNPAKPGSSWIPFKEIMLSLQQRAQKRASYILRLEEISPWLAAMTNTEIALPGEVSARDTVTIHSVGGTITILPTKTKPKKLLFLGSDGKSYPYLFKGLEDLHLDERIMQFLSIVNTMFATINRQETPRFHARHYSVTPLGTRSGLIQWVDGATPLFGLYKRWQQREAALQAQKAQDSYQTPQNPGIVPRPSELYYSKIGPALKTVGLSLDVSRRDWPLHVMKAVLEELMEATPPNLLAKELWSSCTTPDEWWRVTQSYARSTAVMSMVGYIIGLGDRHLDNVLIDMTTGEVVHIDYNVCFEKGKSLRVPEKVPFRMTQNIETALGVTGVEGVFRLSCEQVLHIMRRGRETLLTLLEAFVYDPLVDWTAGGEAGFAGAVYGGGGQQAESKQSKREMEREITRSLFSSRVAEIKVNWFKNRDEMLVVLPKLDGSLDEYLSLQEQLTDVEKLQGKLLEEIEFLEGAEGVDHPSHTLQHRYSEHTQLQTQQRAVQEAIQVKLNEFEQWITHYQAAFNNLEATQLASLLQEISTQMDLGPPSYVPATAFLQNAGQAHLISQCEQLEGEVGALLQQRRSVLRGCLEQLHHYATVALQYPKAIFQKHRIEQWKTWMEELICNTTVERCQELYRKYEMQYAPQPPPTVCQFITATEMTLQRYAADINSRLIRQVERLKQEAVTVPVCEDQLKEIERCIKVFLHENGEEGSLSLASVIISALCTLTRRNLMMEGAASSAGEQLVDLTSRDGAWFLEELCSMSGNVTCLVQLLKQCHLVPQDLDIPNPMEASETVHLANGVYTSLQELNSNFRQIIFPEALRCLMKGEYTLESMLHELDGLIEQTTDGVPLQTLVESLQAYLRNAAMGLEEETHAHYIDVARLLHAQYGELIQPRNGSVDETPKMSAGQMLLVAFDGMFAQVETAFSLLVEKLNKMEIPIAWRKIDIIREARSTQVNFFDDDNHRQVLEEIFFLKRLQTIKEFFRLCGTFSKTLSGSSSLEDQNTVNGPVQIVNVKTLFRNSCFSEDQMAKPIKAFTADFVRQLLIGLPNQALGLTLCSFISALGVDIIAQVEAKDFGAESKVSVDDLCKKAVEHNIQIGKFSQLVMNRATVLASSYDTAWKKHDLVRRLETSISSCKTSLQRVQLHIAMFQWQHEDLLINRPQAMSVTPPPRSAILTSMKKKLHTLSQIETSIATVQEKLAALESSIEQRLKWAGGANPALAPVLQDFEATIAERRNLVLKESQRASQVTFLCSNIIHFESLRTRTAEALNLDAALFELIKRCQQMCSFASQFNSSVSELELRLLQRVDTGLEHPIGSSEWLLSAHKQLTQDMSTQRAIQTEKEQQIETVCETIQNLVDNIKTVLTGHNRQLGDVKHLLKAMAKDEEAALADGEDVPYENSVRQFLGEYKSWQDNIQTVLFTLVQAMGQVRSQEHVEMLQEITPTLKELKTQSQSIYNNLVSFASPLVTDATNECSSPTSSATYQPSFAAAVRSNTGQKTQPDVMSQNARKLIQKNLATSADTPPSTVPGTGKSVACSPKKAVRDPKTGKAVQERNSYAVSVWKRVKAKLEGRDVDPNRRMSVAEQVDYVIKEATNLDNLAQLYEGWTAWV
UniProt P19634, 794-813: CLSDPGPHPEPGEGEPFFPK
UniProt P00441, whole entry, looked up: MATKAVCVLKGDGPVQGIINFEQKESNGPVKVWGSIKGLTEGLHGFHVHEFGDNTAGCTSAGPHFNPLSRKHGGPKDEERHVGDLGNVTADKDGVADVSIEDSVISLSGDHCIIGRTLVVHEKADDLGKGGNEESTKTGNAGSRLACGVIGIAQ

Experiments:
[1] = compound: ClCC(=O)N[C@H]1CCCc2ccccc12; experiment: log2 mean competition ratio of IA-DTB cysteine labelling (DMSO/compound) (log2 ratio); higher = stronger cysteine engagement by compound; details: treatment time: 4 h, cell line lysate: HEK293T
Description: (§1)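 IA-DTB competitive cysteine chemoproteomics in HEK293T RIPA lysate. Lysates were treated with compound 29 or 30 at 50 or 200 µM for 4 h, then IA-DTB (500 µM, 1 h), trypsin-digested, NeutrAvidin-enriched and analysed by diaPASEF. Competition ratio = intensity DMSO / intensity compound (n=4 treated, n=64 DMSO); binding: mean log2 CR ≥ 1 and p ≤ 0.05 plus QC filters. Target is the cysteine site.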

[2] = compound: ClCC(=O)N[C@@H]1CCCc2ccccc12; experiment: as above; details: treatment time: 4 h, cell line lysate: HEK293T
Description: as §1

| Target | log2 mean competition ratio ([1]; 50 µM) | log2 mean competition ratio ([1]; 200 µM) | log2 mean competition ratio ([2]; 50 µM) | log2 mean competition ratio ([2]; 200 µM) |
| --- | --- | --- | --- | --- |
| SMC5 C881 (UniProt Q8IY18) | 0.564 | -0.0567 | – | – |
| SNAPC3 C11 (UniProt Q92966) | -0.0298 | 0.156 | – | – |
| SMARCA1 C168 (UniProt P28370) | 0.357 | -0.0525 | -0.0479 | -0.0651 |
| SMARCA4 C1359 (UniProt P51532) | -0.828 | 0.103 | -0.185 | 0.0814 |
| SKIV2L C913 (UniProt Q15477) | -0.457 | 0.0118 | – | – |
| SLC1A4 C500 (UniProt P43007) | -0.00884 | -0.21 | -0.2 | -0.396 |
| SMC5 C229 (UniProt Q8IY18) | -0.0427 | 0.236 | – | – |
| SNRNP48 C292 (UniProt Q6IEG0) | -0.0778 | 0.429 | -0.106 | 0.251 |
| SLC39A6 C146 (UniProt Q13433) | 0.0679 | -0.173 | – | – |
| SNAPC4 C491 (UniProt Q5SXM2) | – | 0.704 | – | 0.353 |
| SLC27A4 C323 (UniProt Q6P1M0) | -0.212 | -0.0876 | – | – |
| SNTB2 C391 (UniProt Q13425) | -0.0652 | 0.325 | – | – |
| SMARCAD1 C568 (UniProt Q9H4L7) | -0.115 | -0.0293 | – | – |
| SLC25A38 C140 (UniProt Q96DW6) | -0.0845 | 0.0805 | – | 0.268 |
| SMG1 C2738 (UniProt Q96Q15) | -0.206 | -0.065 | -0.216 | 0.0938 |
| SORL1 C1549 (UniProt Q92673) | -0.374 | – | -0.217 | – |
| SLC9A1 C794 (UniProt P19634) | -0.446 | -0.0352 | -0.136 | 0.154 |
| SNX4 C342 (UniProt O95219) | 0.0971 | -0.211 | – | – |
| SMOC1 C315 (UniProt Q9H4F8) | -0.68 | 0.174 | – | – |
| SLC30A9 C141 (UniProt Q6PML9) | 0.581 | 0.0071 | – | – |
| SNTB2 C450 (UniProt Q13425) | -0.0293 | -0.213 | – | – |
| SNTA1 C226 (UniProt Q13424) | -0.307 | -0.178 | – | – |
| SLC25A19 C268 (UniProt Q9HC21) | -0.133 | 0.0764 | – | – |
| SKA3 C290 (UniProt Q8IX90) | -0.0537 | 0.189 | – | – |
| SLC47A1 C466 | 0.615 | 0.198 | – | – |
| SLC25A13 C377 (UniProt Q9UJS0) | 0.398 | -0.141 | – | – |
| SLC26A6 C628 (UniProt Q9BXS9) | -0.0462 | 0.302 | – | – |
| SLC35F6 C36 (UniProt Q8N357) | -0.00218 | -0.1 | – | – |

Record cards (already shown). Order of values: log2 mean competition ratio ([1]; 50 µM) | log2 mean competition ratio ([1]; 200 µM) | log2 mean competition ratio ([2]; 50 µM) | log2 mean competition ratio ([2]; 200 µM)
SMARCAD1 C568 (UniProt Q9H4L7) is listed as -0.115 | -0.0293 | – | –
SORL1 C1549 (UniProt Q92673) is listed as -0.374 | – | -0.217 | –
SKIV2L C913 (UniProt Q15477) is listed as -0.457 | 0.0118 | – | –

The list goes on.

| Target | log2 mean competition ratio ([1]; 50 µM) | log2 mean competition ratio ([1]; 200 µM) | log2 mean competition ratio ([2]; 50 µM) | log2 mean competition ratio ([2]; 200 µM) |
| --- | --- | --- | --- | --- |
| SMC5 C726 (UniProt Q8IY18) | -0.616 | -0.339 | – | – |
| SMC2 C1174 (UniProt O95347) | 0.0658 | 0.0749 | – | – |
| SLC2A13 C467 (UniProt Q96QE2) | -0.0906 | 0.106 | – | – |
| SOAT1 C92 (UniProt P35610) | 0.0602 | -0.149 | – | – |
| SPART C562 (UniProt Q8N0X7) | 0.497 | -0.134 | – | – |
| SMOC1 C67 (UniProt Q9H4F8) | -0.15 | 0.252 | – | – |
| SMG8 C72 (UniProt Q8ND04) | -0.249 | -0.0979 | – | – |
| SLC25A1 C70 (UniProt P53007) | 0.191 | 0.293 | – | – |
| SMPD4 C164 (UniProt Q9NXE4) | -0.586 | -0.0699 | – | – |
| SON C92 (UniProt P18583) | -0.348 | -0.134 | – | – |
| SMG5 C109 (UniProt Q9UPR3) | 0.224 | 0.0844 | – | – |
| SMARCA2 C1175 (UniProt P51531) | -0.304 | 0.118 | – | – |
| SMPD4 C698 (UniProt Q9NXE4) | -0.335 | 0.0849 | – | – |
| SNUPN C356 (UniProt O95149) | 0.188 | -0.0615 | – | – |
| SMYD3 C41 (UniProt Q9H7B4) | 0.416 | 0.153 | – | – |
| SLC2A4RG C322 | -0.101 | 0.256 | – | – |
| SMPD2 C304 (UniProt O60906) | -0.265 | 0.0323 | – | – |
| SMG1 C1929 (UniProt Q96Q15) | 0.127 | -0.324 | – | – |
| SMARCD2 C365 (UniProt Q92925) | -0.0564 | 0.224 | – | – |
| SOD1 C147 (UniProt P00441) | 0.505 | 0.163 | – | – |
| SMCHD1 C1445 (UniProt A6NHR9) | -0.431 | 0.155 | – | – |
| SMARCA2 C91 (UniProt P51531) | 0.00252 | 0.38 | – | – |
| SLC7A2 C376 (UniProt P52569) | 0.367 | -0.203 | – | – |
| SNRNP200 C428 (UniProt O75643) | -0.229 | -0.054 | – | – |
| SMG1 C890 (UniProt Q96Q15) | 0.0037 | -0.182 | – | – |
| SLC25A21 C46 (UniProt Q9BQT8) | -0.201 | -0.143 | – | – |
| SNRNP48 C132 (UniProt Q6IEG0) | -0.185 | 0.0507 | – | – |
